No constants are given. Whether binding was seen depends on the method and setting. Binding seen in cells or lysates may run through a third protein. Some binding calls cover weakened binding; strength is not graded here.
Columns and labels:
[1] = target: 2'-5' oligoadenylate synthetase 2 (OAS2) p69 isoform (human) (UniProt P29728); experiment: cross-linking; A549 cells expressing OAS2 p71 or p69 treated with or without 0.5% formaldehyde for 10 min at room temperature, quenched with 0.25 M glycine, lysed in RIPA buffer, sonicated; OAS2 detected by Western blot
[2] = target: 2'-5' oligoadenylate synthetase 2 (OAS2) p71 isoform (human) (UniProt P29728); experiment: as above

| binding [1] | binding [2] | Binder |
| --- | --- | --- |
| binds |  | 2'-5' oligoadenylate synthetase 2 (OAS2) p69 isoform (protein, UniProt P29728-2 1-687) MGNGESQLSSVPAQKLGWFIQEYLKPYEECQTLIDEMVNTICDVLQEPEQFPLVQGVAIGGSYGRKTVLRGNSDGTLVLFFSDLKQFQDQKRSQRDILDKTGDKLKFCLFTKWLKNNFEIQKSLDGFTIQVFTKNQRISFEVLAAFNALSLNDNPSPWIYRELKRSLDKTNASPGEFAVCFTELQQKFFDNRPGKLKDLILLIKHWHQQCQKKIKDLPSLSPYALELLTVYAWEQGCRKDNFDIAEGVRTVLELIKCQEKLCIYWMVNYNFEDETIRNILLHQLQSARPVILDPVDPTNNVSGDKICWQWLKKEAQTWLTSPNLDNELPAPSWNVLPAPLFTTPGHLLDKFIKEFLQPNKCFLEQIDSAVNIIRTFLKENCFRQSTAKIQIVRGGSTAKGTALKTGSDADLVVFHNSLKSYTSQKNERHKIVKEIHEQLKAFWREKEEELEVSFEPPKWKAPRVLSFSLKSKVLNESVSFDVLPAFNALGQLSSGSTPSPEVYAGLIDLYKSSDLPGGEFSTCFTVLQRNFIRSRPTKLKDLIRLVKHWYKECERKLKPKGSLPPKYALELLTIYAWEQGSGVPDFDTAEGFRTVLELVTQYQQLCIFWKVNYNFEDETVRKFLLSQLQKTRPVILDPAEPTGDVGGGDRWCWHLLAKEAKEWLSSPCFKDGTGNPIPPWKVPVKVI |
|  | binds | 2'-5' oligoadenylate synthetase 2 (OAS2) p71 isoform (protein, UniProt P29728-1 1-719) MGNGESQLSSVPAQKLGWFIQEYLKPYEECQTLIDEMVNTICDVLQEPEQFPLVQGVAIGGSYGRKTVLRGNSDGTLVLFFSDLKQFQDQKRSQRDILDKTGDKLKFCLFTKWLKNNFEIQKSLDGFTIQVFTKNQRISFEVLAAFNALSLNDNPSPWIYRELKRSLDKTNASPGEFAVCFTELQQKFFDNRPGKLKDLILLIKHWHQQCQKKIKDLPSLSPYALELLTVYAWEQGCRKDNFDIAEGVRTVLELIKCQEKLCIYWMVNYNFEDETIRNILLHQLQSARPVILDPVDPTNNVSGDKICWQWLKKEAQTWLTSPNLDNELPAPSWNVLPAPLFTTPGHLLDKFIKEFLQPNKCFLEQIDSAVNIIRTFLKENCFRQSTAKIQIVRGGSTAKGTALKTGSDADLVVFHNSLKSYTSQKNERHKIVKEIHEQLKAFWREKEEELEVSFEPPKWKAPRVLSFSLKSKVLNESVSFDVLPAFNALGQLSSGSTPSPEVYAGLIDLYKSSDLPGGEFSTCFTVLQRNFIRSRPTKLKDLIRLVKHWYKECERKLKPKGSLPPKYALELLTIYAWEQGSGVPDFDTAEGFRTVLELVTQYQQLCIFWKVNYNFEDETVRKFLLSQLQKTRPVILDPAEPTGDVGGGDRWCWHLLAKEAKEWLSSPCFKDGTGNPIPPWKVPTMQTPGSCGARIHPIVNEMFSSRSHRILNNNSKRNF |
